Here are results for one molecule from article PMC10885970.

The chains behind the UniProt entries cited, without tags or fusion partners.
UniProt O89090: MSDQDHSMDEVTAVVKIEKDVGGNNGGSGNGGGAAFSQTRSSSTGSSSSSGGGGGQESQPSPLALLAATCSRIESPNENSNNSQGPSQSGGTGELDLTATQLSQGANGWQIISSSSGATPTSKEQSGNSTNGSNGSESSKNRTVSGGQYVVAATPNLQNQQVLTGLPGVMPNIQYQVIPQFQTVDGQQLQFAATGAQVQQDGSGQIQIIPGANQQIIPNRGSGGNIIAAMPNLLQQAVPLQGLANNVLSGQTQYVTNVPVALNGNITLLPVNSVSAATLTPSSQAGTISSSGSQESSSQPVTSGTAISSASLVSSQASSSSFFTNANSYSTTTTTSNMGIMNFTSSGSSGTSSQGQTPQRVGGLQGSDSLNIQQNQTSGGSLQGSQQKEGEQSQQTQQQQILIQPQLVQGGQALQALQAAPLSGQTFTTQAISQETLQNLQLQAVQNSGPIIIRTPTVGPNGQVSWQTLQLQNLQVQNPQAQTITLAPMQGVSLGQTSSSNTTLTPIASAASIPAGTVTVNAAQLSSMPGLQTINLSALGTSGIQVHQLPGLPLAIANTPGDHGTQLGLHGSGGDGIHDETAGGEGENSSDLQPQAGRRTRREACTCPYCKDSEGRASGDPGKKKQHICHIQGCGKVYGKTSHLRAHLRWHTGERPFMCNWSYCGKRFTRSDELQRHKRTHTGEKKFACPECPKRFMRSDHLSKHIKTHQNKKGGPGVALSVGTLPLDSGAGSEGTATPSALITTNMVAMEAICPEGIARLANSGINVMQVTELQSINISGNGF

The target of the assay is SP1 (mouse (endogenous in mouse hypothalamus)) (UniProt O89090). Briefly: co-IP; endogenous proteins from mouse hypothalamus lysate; IP buffer 50 mM Tris, 150 mM NaCl, 0.5% NP40, pH 7.5; antibody (anti-PGC-1α or anti-SP1) on Protein A/G beads, overnight at 4 °C; immunoblot.

Results are given in words; binding and its absence hold for the method and conditions named. In cells and extracts the contact can be indirect. Some binding calls cover weakened binding; strength is not graded here.

B1: peroxisome proliferator-activated receptor γ coactivator 1α (protein, UniProt O70343 1-797)
chain: MAWDMCSQDSVWSDIECAALVGEDQPLCPDLPELDLSELDVNDLDTDSFLGGLKWCSDQSEIISNQYNNEPANIFEKIDEENEANLLAVLTETLDSLPVDEDGLPSFDALTDGAVTTDNEASPSSMPDGTPPPQEAEEPSLLKKLLLAPANTQLSYNECSGLSTQNHAANHTHRIRTNPAIVKTENSWSNKAKSICQQQKPQRRPCSELLKYLTTNDDPPHTKPTENRNSSRDKCASKKKSHTQPQSQHAQAKPTTLSLPLTPESPNDPKGSPFENKTIERTLSVELSGTAGLTPPTTPPHKANQDNPFKASPKLKPSCKTVVPPPTKRARYSECSGTQGSHSTKKGPEQSELYAQLSKSSGLSRGHEERKTKRPSLRLFGDHDYCQSLNSKTDILINISQELQDSRQLDFKDASCDWQGHICSSTDSGQCYLRETLEASKQVSPCSTRKQLQDQEIRAELNKHFGHPCQAVFDDKSDKTSELRDGDFSNEQFSKLPVFINSGLAMDGLFDDSEDESDKLSYPWDGTQPYSLFDVSPSCSSFNSPCRDSVSPPKSLFSQRPQRMRSRSRSFSRHRSCSRSPYSRSRSRSPGSRSSSRSCYYYESSHYRHRTHRNSPLYVRSRSRSPYSRRPRYDSYEAYEHERLKRDEYRKEHEKRESERAKQRERQKQKAIEERRVIYVGKIRPDTTRTELRDRFEVFGEIEECTVNLRDDGDSYGFITYRYTCDAFAALENGYTLRRSNETDFELYFCGRKQFFKSNYADLDTNSDDFDPASTKSKYDSLDFDSLLKEAQRSLRR
B1: the binding result was “binds”.
